Experimental data published in PubChem BioAssay AID1259415 (National Center for Advancing Translational Sciences (NCATS), 2018).
Screen size: about 410,000 compounds; about 18,000 (4.4%) were called active. Inconclusive means that the source gave no clear call. Such entries were picked first, then a sample of the others. Rule as the data show it: active = activity change below about -60%; inconclusive = no clear call, values can overlap the other calls; inactive = above about -39%.

Test: qHTS Assay for inhibitors of the human cytomegalovirus (HCMV)
Conditions: HFF cells, HCMV-luciferase reporter, 72 h; at 57.5 µM; stronger effect = lower value
Procedure, shortened: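 Inhibition of viral replication was scored as loss of reporter luminescence in HFFs infected with HCMV-luciferase (MOI 1 PFU/cell) for 72 h; compounds tested at 2 doses, normalized to buffer and Salinomycin controls.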
% is scaled to controls: 0 for no effect and ±100 for the full control effect.

Row | Compound | activity change, negative = inhibition
1 | Cc1cc(C)cc(NC(=O)CSc2nc(=O)n3cc(C)ccc3n2)c1 | inconclusive: -57.1%
2 | CN(CC(=O)NCc1ccncc1)S(=O)(=O)c1ccccc1 | inconclusive: -46.7%
3 | Cc1oc(-c2ccc(F)cc2F)nc1CN1CCN(C(=O)c2ccco2)CC1 | inconclusive: -57.5%
4 | COc1ccccc1C(=O)Oc1ccc(N2C(=O)CCC2=O)cc1 | inactive: -9.72%
5 | CC1CN(C(=O)/C=C/c2ccccc2[N+](=O)[O-])CC(C)O1 (centres undefined) | inconclusive: -51%
6 | COc1ccc2cc(CCNC(=O)c3cccs3)c(=O)[nH]c2c1 | inactive: 165%
7 | COc1ccc(CNC(=O)c2cccc(NC(=O)N3CCSc4ncccc43)c2)cc1 | inconclusive: 0%
8 | CN1CCN(c2ccc(CNS(=O)(=O)Cc3cccc(C(F)(F)F)c3)cc2)CC1 | inconclusive: -47.2%
9 | COc1ccc(C(=O)/C=C/C(=O)N(Cc2ccccc2)C(C(=O)NC2CCCCC2)c2ccncc2)c(O)c1 (centres undefined) | inconclusive: -56.3%
10 | CCOC(=O)c1ccc(NC(=O)Nc2ccc(OC)c(OC)c2)cc1 | inconclusive: -52.4%
11 | CC1=C(C(=O)Nc2ccccc2)C(c2ccc[nH]2)n2ncnc2N1 (centres undefined) | inconclusive: -45.1%
12 | COC(=O)c1ccc(N2CCCCC2)c(NC(=O)c2ccco2)c1 | inconclusive: -50.3%
13 | OC1(C#Cc2c(-c3ccsc3)oc3ccc(N4CCOCC4)cc23)CCCCC1 | inactive: 50.6%
14 | O=C(COC(=O)Cc1ccccc1)NC12CC3CC(CC(C3)C1)C2 | inactive: 77.8%
15 | CCCN1CCc2c(sc3nc(SC)n(-c4ccccc4)c(=O)c23)C1 | inconclusive: -59.1%
16 | COc1ccc(CC(=O)Nc2ccc(S(=O)(=O)N(C)C3CCN(C)CC3)cc2)cc1 | inactive: -5.33%
17 | COc1cccc(C(C)(O)c2nc(-c3ccccc3)cs2)c1 (centres undefined) | inconclusive: -51.6%
18 | C=CCc1cccc(/C=N/NC(=O)COc2ccc(-n3cnnn3)cc2)c1O | inconclusive: -42.3%
19 | Cn1c(=O)c([N+](=O)[O-])c(NCCCn2ccnc2)c2ccccc21 | inactive: 1%
20 | C=CCOc1ccc(/C=N/NC(=O)C(=O)N2CCCCCC2)cc1OC | inconclusive: -51.6%
21 | CC1CCCCN1S(=O)(=O)c1ccc(C(=O)Nc2nnc(-c3ccccc3Cl)o2)cc1 (centres undefined) | inconclusive: -47.4%

Row | Compound | activity change, negative = inhibition
22 | COc1ccc(S(=O)(=O)N(C)C)cc1NCC(=O)Nc1ccc(Br)c(C)c1 | inconclusive: -46.2%
23 | O=[N+]([O-])c1cccc(S(=O)(=O)Nc2ccc(-c3ccc(N4CCCC4)nn3)cc2)c1 | inconclusive: -46.7%
24 | Nc1cc(N)nc(SCC(=O)c2ccccc2)n1 | inactive: 79.9%
25 | CCOC(=O)/C(=N\Nc1ccc(C(C)=O)cc1)c1csc(Nc2ccccc2)n1 | inconclusive: -40.5%
26 | Cc1cc(C(=O)Nc2ccc(N3CCCCC3)cc2)no1 | inactive: 16.6%
27 | O=C(c1ccc2c(c1)N(Cc1ccc(Cl)cc1)C(=O)c1ccccc1S2=O)N1CCC(Cc2ccccc2)CC1 (centres undefined) | inconclusive: -54.9%
28 | CCCn1cc(NC(=O)c2cc(-c3ccccc3)on2)cn1 | inactive: 31%
29 | COCCCn1c(=O)c2sccc2n2c(CCCC(=O)Nc3cccc(C(F)(F)F)c3)nnc12 | inconclusive: -44.7%
30 | COc1cccc(/C=N/NC(=O)c2ccc(-c3ccccc3)cc2)c1O | active: -97.6%
31 | Cc1cccc(N2CCN(C(=O)CNC(=O)c3ccccc3)CC2)c1C | inconclusive: -40.6%
32 | CCC(=O)NC(=S)Nc1cccc(NC(=O)c2ccc(Cl)cc2Cl)c1 | inconclusive: -42%
33 | Cc1cc2c(cc1S(=O)(=O)N1CC(C)CC(C)C1)OCC(=O)N2 (centres undefined) | inactive: -1.41%
34 | Cc1ccc2c(c1)N(C(=O)CCC(=O)N1CCC(C(N)=O)CC1)CC(C)O2 (centres undefined) | inconclusive: -40.9%
35 | O=S(=O)(Nc1ccc(C(F)(F)F)cc1)c1ccc2c(c1)OCCO2 | inactive: -17.3%
36 | Cc1cccc(C(=O)NCC(=O)N2CCN(c3ccccn3)CC2)c1 | active: -104%
37 | Cc1cccc(S(=O)(=O)N(CC(=O)Nc2ccccc2C)Cc2ccco2)c1 | inactive: -18.1%
38 | O=[N+]([O-])c1ccc(Nc2cccc3c2[nH]c2c(-c4ccccc4)nccc23)c([N+](=O)[O-])c1 | inconclusive: -51.4%
39 | COc1cccc(C2C=C(Nc3ccccc3)C(=O)N2c2ccccc2)c1 (centres undefined) | inconclusive: -41.3%
40 | Cc1cnc2cc(Cl)ccc2c1SCC(=O)O | inconclusive: -47%
41 | CN(C)S(=O)(=O)c1cccc(NC(=O)CCCC2CCCCC2)c1 | inconclusive: -40.2%
42 | CN(Cc1ccccc1)C(=O)c1cccc(NC(=O)Cc2cccc([N+](=O)[O-])c2)c1 | inconclusive: -50.7%

Sorted by SMILES length (smallest number first): 5 of the compounds above.
Row | Compound | activity change, negative = inhibition
24 | Nc1cc(N)nc(SCC(=O)c2ccccc2)n1 | inactive: 79.9%
31 | Cc1cccc(N2CCN(C(=O)CNC(=O)c3ccccc3)CC2)c1C | inconclusive: -40.6%
30 | COc1cccc(/C=N/NC(=O)c2ccc(-c3ccccc3)cc2)c1O | active: -97.6%
25 | CCOC(=O)/C(=N\Nc1ccc(C(C)=O)cc1)c1csc(Nc2ccccc2)n1 | inconclusive: -40.5%
42 | CN(Cc1ccccc1)C(=O)c1cccc(NC(=O)Cc2cccc([N+](=O)[O-])c2)c1 | inconclusive: -50.7%

(listing goes on)

Row | Compound | activity change, negative = inhibition
43 | CC(=O)c1cccc(NS(=O)(=O)c2ccc(-c3cnc(C4CC4)o3)cc2)c1 | active: -85.4%
44 | O=C(NN1C(=O)/C(=C/c2ccc(O)c(O)c2)SC1=S)c1ccccc1 | inactive: 17.6%
45 | Cc1ccc(NC(=O)Cn2c(=O)n(Cc3ccc(C(=O)NCc4ccc5c(c4)OCO5)cc3)c(=O)c3ccccc32)cc1 | inconclusive: -51.6%
46 | COc1ccc(-c2nc3cc(C)c(Br)c(C)n3c2Cc2cccc(F)c2)cc1OC | inactive: -14.7%
47 | CC(CN1CCN(C)CC1)OC(=O)c1ccc(Cl)cc1 (centres undefined) | inconclusive: -41.4%
48 | CNC(=S)NNC(=O)Cc1ccc(OC)c(OC)c1 | inconclusive: -40.7%
49 | O=C(Nc1ccc(F)cc1)c1cc(-c2ccncc2)nc2c(Cl)cccc12 | inconclusive: -44.7%
50 | CCOc1ccc(CNC(=O)CCS(=O)(=O)c2ccc3c(c2)oc(=O)n3C)cc1 | inconclusive: -45.1%
51 | Cc1ccc(C(C)C)c(OCc2nc(-c3nonc3N)no2)c1 | inconclusive: -56.3%
52 | Nc1ncc(Br)cc1S(=O)(=O)NCCC(=O)N1CCN(c2ncccn2)CC1 | inconclusive: -43.3%
53 | Cc1ccc(-c2nc(-c3cc4cccc(OCc5ccccc5F)c4oc3=O)no2)cc1 | inactive: -22%
54 | COc1ccc(C(=O)CC(SCC(NC(C)=O)C(=O)O)c2ccc(Cl)cc2)cc1OC (centres undefined) | inconclusive: -47.6%
55 | Cc1cc(-c2n[nH]c(=S)n2CC(C)C)cs1 | inconclusive: -44.4%
56 | CCN1C(=O)[C@H]2[C@@H](c3ccc(C)cc3)N3C(=O)N(c4cccc(Cl)c4)C(=O)[C@@]3(Cc3ccccc3)[C@H]2C1=O | inconclusive: -56.4%
57 | C/C(=N/NC(=O)c1ccncc1)c1cc2ccc(O)cc2oc1=O | inconclusive: -57.9%
58 | O=C(Nc1ccc(S(=O)(=O)NCc2ccco2)cc1)C1CCCCC1 | inconclusive: -47.8%
59 | O=C(CSc1ncn[nH]1)NCCc1ccccc1 | inactive: 7.17%
60 | Cc1ccc(C(=O)COC(=O)CCN2C(=O)C3C4C=CC(C5CC45)C3C2=O)cc1 (centres undefined) | inconclusive: -44%
61 | O=C(C(=O)N1CCc2ccccc2C1)c1cn(CC(=O)N2CCCC2)c2ccccc12 | inconclusive: -40.1%
62 | COc1ccc(NC(=O)Cn2nc(C(F)(F)F)c3c2CCCC3)cc1OC | inconclusive: -53.3%
63 | O=C(Nc1ccc2nc3n(c(=O)c2c1)CCCC3)c1cncc(Br)c1 | active: -63.3%

Row | Compound | activity change, negative = inhibition
64 | Cc1cc(C)c2cc(C#N)c(SCC(=O)Nc3cc(C)on3)nc2c1 | active: -60.6%
65 | CCOC(=O)N1CCC(N(CCOC)C(=S)Nc2cccc(SC)c2)CC1 | inconclusive: -41.5%
66 | COc1ccc(OC)c(NC(=O)CN2C(=O)c3ccccc3S2(=O)=O)c1 | inactive: 52.7%
67 | Cc1nc2c(C)c(C)c(C)c(C)c2nc1C | inconclusive: -49.3%
68 | O=[N+]([O-])c1cccc(-n2nnnc2CNCc2ccccc2)c1 | inconclusive: -57.9%
69 | Cc1ccccc1Nc1c(-c2ccc(N3CCOCC3)cc2)nc2cnccn12 | inactive: 25.8%
70 | CC1(C)C2CC[C@]3(C)[C@H](C(=O)C=C4[C@@H]5C[C@@](C)(C(=O)O)CC[C@]5(C)CC[C@]43C)[C@@]2(C)CC[C@@H]1O[C@H]1O[C@H](C(=O)O)[C@@H](O)[C@H](O)[C@H]1O[C@@H]1O[C@H](C(=O)O)[C@@H](O)[C@H](O)[C@H]1O (some centres undefined) | inconclusive: -43.7%
71 | CCOC(=O)c1c(C)n(C)c2ccc(OC(=O)c3ccco3)cc12 | inconclusive: -49.1%
72 | COc1cc(NC(=O)CN2C(=O)C(c3ccccc3)=NC2(C)C)cc(OC)c1 | inconclusive: -51%
73 | Cc1ccc(Cn2c3ccccc3c3cn[nH]c(=O)c32)cc1 | inconclusive: -42%
74 | O=C(CN(CC1CCCO1)C(=O)c1nsc(Cl)c1Cl)NC1CCCC1 (centres undefined) | active: -66.4%
75 | CN(C)CCCNC(=O)c1ccc(Oc2ccccc2)cc1 | inconclusive: -44.7%
76 | COC(=O)C1CCN(C(=O)CSc2nnc(-c3ccncc3)o2)CC1 | inactive: -0.284%
77 | COc1ccc(C(=O)NC(=S)Nc2ccccc2N2CCCCC2)cc1[N+](=O)[O-] | inactive: -11.3%
78 | CCOC(=O)c1ccc(COC(=O)c2ccc3c(c2)-c2ccccc2C3=O)cc1 | inconclusive: -52.8%
79 | CCCS(=O)(=O)c1cscc1NC(=O)c1c(-c2c(F)cccc2Cl)noc1C | inactive: 3.26%
80 | Nc1ccccc1SCC(=O)Nc1nccs1 | inactive: -4.76%
81 | O=c1[nH]c2ccccc2n1C1CCN(C(c2ccccc2OC(F)(F)F)c2nnnn2Cc2ccccc2)CC1 (centres undefined) | active: -69.4%
82 | O=C(Nc1cccnc1)c1cc(-c2ccc(Cl)cc2)on1 | inconclusive: -43%
83 | CCOc1ccc(-n2c(C)nc3cc(C(=O)NCc4ccco4)ccc32)cc1 | inconclusive: -47.1%
84 | O=C(COc1ccc(Br)cc1)Nc1ccc(Cl)cc1C(=O)c1ccccc1 | inconclusive: -42.5%
